Laboratory results taken from paper PMC3527276.
Results are given in words; binding and its absence hold for the method and conditions named. Binding seen in cells or lysates may run through a third protein. Binding can be weak; no strength is given.

Chains of the proteins cited; added tags and fusions are not shown. Lines headed by an entry give the natural chain unless they say otherwise; changes in a name come on top.
UniProt P50549: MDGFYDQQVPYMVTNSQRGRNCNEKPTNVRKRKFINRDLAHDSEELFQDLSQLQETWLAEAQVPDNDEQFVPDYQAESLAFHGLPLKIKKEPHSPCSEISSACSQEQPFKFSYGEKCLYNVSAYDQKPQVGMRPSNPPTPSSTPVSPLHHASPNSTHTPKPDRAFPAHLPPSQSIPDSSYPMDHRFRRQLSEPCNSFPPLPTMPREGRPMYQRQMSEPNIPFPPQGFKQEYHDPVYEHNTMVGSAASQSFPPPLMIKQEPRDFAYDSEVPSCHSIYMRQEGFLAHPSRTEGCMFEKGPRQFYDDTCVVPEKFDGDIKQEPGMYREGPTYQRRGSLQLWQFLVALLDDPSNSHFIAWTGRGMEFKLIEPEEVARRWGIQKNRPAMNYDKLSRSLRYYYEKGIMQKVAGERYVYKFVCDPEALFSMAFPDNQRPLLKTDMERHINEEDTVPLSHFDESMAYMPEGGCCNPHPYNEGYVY
UniProt Q13535: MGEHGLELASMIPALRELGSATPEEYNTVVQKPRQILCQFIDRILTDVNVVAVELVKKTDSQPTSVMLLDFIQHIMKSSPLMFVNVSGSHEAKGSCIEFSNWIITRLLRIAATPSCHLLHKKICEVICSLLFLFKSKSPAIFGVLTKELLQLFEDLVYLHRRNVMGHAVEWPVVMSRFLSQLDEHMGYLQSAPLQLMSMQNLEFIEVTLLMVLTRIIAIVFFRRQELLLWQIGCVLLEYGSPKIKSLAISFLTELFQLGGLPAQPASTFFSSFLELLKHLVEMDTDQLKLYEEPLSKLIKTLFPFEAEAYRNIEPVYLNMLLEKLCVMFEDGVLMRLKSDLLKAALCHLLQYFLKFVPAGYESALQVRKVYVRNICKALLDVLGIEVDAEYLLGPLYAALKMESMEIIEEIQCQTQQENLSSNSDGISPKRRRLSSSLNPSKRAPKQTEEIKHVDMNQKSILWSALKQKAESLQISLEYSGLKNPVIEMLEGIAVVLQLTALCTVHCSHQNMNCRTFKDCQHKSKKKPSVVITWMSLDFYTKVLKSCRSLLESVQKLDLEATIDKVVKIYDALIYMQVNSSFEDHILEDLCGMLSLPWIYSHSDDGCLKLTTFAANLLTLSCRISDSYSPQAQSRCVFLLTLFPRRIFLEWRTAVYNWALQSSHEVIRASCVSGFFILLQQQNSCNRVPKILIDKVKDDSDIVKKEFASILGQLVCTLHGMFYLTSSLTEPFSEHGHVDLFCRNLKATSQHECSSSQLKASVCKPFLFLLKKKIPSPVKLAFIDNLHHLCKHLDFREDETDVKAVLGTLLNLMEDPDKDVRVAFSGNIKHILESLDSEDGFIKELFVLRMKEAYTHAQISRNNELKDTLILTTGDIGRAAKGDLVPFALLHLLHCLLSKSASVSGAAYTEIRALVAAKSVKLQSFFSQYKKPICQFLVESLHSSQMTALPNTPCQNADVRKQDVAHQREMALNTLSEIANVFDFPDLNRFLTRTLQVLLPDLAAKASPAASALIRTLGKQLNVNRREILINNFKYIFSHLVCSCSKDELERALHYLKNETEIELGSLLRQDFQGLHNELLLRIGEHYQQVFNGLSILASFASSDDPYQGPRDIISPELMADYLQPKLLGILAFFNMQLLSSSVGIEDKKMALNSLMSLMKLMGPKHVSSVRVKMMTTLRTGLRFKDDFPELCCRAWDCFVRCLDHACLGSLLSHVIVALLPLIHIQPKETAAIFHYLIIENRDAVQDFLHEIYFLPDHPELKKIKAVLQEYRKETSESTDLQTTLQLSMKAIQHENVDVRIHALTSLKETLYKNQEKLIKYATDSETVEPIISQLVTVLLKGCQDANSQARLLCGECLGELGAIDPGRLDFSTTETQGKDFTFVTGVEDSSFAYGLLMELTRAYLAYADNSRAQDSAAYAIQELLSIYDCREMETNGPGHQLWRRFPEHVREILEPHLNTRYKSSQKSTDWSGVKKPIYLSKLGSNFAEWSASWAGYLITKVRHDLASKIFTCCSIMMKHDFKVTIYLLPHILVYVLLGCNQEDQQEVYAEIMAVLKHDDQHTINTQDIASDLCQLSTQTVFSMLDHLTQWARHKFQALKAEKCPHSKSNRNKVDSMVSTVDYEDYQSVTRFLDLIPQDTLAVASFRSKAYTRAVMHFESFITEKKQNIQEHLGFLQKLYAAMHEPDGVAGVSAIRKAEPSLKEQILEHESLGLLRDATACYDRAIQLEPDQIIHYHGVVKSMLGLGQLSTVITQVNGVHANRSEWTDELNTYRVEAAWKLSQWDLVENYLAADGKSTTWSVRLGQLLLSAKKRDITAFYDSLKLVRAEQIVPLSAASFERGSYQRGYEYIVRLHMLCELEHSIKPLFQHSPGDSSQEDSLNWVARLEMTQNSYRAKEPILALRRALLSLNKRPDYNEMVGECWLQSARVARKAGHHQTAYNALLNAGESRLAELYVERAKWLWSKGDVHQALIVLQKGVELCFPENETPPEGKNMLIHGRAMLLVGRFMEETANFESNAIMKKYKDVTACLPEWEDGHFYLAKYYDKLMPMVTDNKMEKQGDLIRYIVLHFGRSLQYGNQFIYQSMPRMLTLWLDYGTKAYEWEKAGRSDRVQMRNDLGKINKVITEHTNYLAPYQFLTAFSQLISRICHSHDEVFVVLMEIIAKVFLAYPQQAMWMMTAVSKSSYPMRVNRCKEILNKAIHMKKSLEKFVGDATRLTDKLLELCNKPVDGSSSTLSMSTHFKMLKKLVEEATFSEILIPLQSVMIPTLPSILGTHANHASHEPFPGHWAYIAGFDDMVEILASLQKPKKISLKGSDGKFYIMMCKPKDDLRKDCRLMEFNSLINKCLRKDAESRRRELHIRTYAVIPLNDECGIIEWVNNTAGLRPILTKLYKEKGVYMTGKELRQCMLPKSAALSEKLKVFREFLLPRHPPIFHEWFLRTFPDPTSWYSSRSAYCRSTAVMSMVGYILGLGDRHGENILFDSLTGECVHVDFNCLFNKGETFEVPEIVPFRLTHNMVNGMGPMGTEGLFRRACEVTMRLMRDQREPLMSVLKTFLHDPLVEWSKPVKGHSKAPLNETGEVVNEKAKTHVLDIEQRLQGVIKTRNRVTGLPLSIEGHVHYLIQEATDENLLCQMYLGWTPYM

Tests used:
[1] = target: FLAG-tagged ETV1 derivative (human) (UniProt P50549); assay: co-IP; whole cell lysate (2 mg) of p53+ or p53- HCT116 cells expressing Flag-ETV1; IP lysis buffer 50 mM Tris-Cl pH 7.4, 250 mM NaCl, 5 mM EDTA, 0.2% Triton X-100, 0.5 mM DTT; antibody to ATR or to Flag (control IgG) overnight at 4°C, Dynabeads Protein G; both orientations, immunoblot
[2] = target: ATR (human (endogenous in HCT116)) (UniProt Q13535); assay: as above

ATR (from UniProt Q13535-1 1-2644) (enzyme)
binding [1]: binds

FLAG-tagged ETV1 derivative (from UniProt P50549-1)
binding [2]: binds
